We go through 2 substances from paper PMC6277169.

By UniProt entry, the sequences of proteins in these tests, tags left out.
UniProt P00722: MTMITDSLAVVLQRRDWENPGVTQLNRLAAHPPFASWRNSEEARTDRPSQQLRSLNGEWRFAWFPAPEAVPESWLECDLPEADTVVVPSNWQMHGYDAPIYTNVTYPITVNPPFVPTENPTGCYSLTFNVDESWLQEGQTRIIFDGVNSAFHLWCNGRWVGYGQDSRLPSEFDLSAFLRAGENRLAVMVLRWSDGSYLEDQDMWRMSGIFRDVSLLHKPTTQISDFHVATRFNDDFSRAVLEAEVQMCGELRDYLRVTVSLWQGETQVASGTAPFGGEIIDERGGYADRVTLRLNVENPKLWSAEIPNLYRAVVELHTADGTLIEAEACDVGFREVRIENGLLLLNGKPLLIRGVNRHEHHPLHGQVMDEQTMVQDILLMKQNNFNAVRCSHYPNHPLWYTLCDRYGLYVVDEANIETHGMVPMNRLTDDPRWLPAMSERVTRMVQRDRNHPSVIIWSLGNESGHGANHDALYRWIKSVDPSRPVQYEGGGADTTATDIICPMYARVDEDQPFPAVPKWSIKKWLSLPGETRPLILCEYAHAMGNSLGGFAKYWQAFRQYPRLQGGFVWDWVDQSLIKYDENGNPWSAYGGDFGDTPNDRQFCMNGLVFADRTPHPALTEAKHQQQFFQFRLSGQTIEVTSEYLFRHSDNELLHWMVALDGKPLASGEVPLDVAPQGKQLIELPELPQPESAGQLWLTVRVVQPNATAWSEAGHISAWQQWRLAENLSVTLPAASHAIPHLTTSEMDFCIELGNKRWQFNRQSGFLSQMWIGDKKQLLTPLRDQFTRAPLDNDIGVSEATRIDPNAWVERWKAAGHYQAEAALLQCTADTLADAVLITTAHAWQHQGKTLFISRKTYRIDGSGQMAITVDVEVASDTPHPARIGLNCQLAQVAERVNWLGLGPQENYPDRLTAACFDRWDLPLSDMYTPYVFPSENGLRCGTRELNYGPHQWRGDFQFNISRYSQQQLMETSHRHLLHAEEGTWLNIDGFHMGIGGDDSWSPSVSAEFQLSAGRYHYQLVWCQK
UniProt Q9DBL9: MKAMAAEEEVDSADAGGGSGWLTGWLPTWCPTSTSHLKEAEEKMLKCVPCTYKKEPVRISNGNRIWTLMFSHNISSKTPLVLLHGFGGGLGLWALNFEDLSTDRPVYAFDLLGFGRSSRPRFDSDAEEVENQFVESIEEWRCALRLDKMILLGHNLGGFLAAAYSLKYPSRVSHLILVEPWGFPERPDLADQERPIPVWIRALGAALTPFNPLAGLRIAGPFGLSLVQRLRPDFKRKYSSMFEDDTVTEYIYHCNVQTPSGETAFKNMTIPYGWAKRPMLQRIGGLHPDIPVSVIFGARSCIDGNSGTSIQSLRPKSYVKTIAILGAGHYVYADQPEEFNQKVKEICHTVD

These are yes or no findings as the source states them, for the method shown. In cells and extracts the contact can be indirect. Some entries that bind do so weakly or less than the wild type. Tags and fused reporters may be left off the sequences shown.

The target of assay [1] is T1, murine FLAG-tagged PNPLA1 (patatin-like phospholipase domain-containing 1) (murine) (UniProt Q3V1D5).
T1 sequence: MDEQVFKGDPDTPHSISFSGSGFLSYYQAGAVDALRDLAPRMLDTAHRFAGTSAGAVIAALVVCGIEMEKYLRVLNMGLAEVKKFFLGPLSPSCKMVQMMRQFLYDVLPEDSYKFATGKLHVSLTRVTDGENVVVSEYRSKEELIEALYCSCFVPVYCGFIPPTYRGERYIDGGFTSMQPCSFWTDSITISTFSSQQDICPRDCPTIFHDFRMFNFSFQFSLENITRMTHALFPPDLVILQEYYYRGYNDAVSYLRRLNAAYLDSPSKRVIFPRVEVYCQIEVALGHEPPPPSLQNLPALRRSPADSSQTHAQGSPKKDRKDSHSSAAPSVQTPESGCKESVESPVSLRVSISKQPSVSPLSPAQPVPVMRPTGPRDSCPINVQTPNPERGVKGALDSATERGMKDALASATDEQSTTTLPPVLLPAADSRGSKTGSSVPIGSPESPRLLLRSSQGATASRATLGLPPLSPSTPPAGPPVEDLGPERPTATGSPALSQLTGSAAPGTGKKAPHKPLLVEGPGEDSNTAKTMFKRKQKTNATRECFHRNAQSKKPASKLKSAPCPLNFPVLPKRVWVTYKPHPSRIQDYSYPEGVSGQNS
Kind of assay: co-IP; HEK 293T cells co-transfected; lysis buffer 50 mM Tris/HCl pH 7.4, 150 mM NaCl, 1 mM EDTA, 1% NP-40; 1 mg lysate protein incubated with anti-FLAG M2-agarose beads overnight at 4°C; immunoblot of input and IP.

Assay [2] deals with T2, FLAG-tagged ATGL (adipose triglyceride lipase) (murine) (UniProt Q8BJ56).
T2 sequence: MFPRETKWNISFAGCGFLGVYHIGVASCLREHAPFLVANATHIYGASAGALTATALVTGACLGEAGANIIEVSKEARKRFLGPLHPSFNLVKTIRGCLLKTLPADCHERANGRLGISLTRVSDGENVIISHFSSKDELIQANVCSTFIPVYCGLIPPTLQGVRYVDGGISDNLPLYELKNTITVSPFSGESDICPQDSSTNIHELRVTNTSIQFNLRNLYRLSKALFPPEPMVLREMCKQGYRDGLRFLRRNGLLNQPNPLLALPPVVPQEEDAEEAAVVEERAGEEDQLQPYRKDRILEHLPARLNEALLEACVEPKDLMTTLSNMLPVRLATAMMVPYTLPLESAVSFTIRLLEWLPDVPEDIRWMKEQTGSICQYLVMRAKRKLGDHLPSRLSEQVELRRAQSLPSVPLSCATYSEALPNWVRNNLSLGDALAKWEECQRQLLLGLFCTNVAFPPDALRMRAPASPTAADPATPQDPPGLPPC
Described as above.

For “His-β-galactosidase (from UniProt P00722 1-1024) (enzyme)”, in assay [1], the binding entry is listed as “no binding”.
With “murine His-tagged ABHD5 (α/β-hydrolase domain-containing 5) (from UniProt Q9DBL9 1-351)”, the binding result in assay [1] and in assay [2] was “binds” throughout.
